Measurements reported in patent US20010021697A1 (priority 1987, published 2001).

Test: peptide synthesis
Conditions: whole synthesis, HPLC elution profile from a C18 column, acetonitrile gradient in 0.1% trifluoroacetate

## H-Gly-Ile-Gly-Ala-Val-Leu-Lys-Val-Leu-Thr-Thr-Gly-Leu-Pro-Ala-Leu-Ile-Ser-Trp-Ile-Lys-Lys-Lys-Lys-Gln-Gln-NH2 (GIGAVLKVLTTGLPALISWIKKKKQQ; printed: Gly-Ile-Gly-Ala-Val-Leu-Lys-Val-Leu-Thr-Thr-Gly-Leu-Pro-Ala-Leu-Ile-Ser-Trp-Ile-Lys-Lys-Lys-Lys-Gln-Gln-)
  purity (crude or final not stated): better than 98% pure
